In PubChem BioAssay AID493014 (National Center for Advancing Translational Sciences (NCATS), 2011):
Some of the results follow. These are further read-outs of the screen, such as a control signal, another cell line or another target. No call is given for them. Compounds called inactive in the main read-out are mostly missing here. Potencies come from curve fits of mixed quality, noted in brackets.

Assay: qHTS Assay to Find Inhibitors of Chronic Active B-Cell Receptor Signaling
Settings: ABC-DLBCL IkBa-CBG/CBR reporter, luminescence ratio (green luciferase fused to IkBa over red control in TMD8 lymphoma cells), 4 h
Procedure, shortened: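 Concentration-response series (up to 46 uM) were applied to TMD8 dual-reporter cells for 4 h at 37C with doxycycline. Green/red ratio, after filter-overlap correction, defined %Activity; red signal alone was normalised to basal cells and zero luminescence.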

[1] = measured here: CBR red luminescence, cell number
[2] = measured here: IkBa-CBG green luminescence

SMILES | AC50 [1] | AC50 [2]
Cc1ccc(C(=O)OCC(=O)Nc2cc(F)ccc2F)cc1NC(=O)c1ccco1 | 0.116 µM [falling, full curve, poor fit] | 
COC(C(=O)Nc1ccc(S(=O)(=O)Nc2c(C)cccc2C)cc1)c1ccccc1 (stereo unspecified) | 3.66 µM [rising, partial curve, poor fit] | 
Cc1cccn2c(NC(=O)c3ccccc3F)c(-c3ccccc3)nc12 | 35.5 µM [rising, single point] | 
Cc1cccc(-c2cc3nc(-c4ccccc4)cc(N4CCC5(CC4)OCCO5)n3n2)c1 |  | 25.9 µM [rising, partial curve, poor fit]
COc1ccccc1N=c1scc(-c2ccc3c(c2)NC(=O)CO3)n1CC1CCCO1 (stereo unspecified) | 0.517 µM [rising, full curve, poor fit] | 
Cc1ccsc1C1C(C#N)=C(N)OC2=C1C(=O)CC(C)C2 (stereo unspecified) |  | 35.5 µM [rising, partial curve, poor fit]
COc1ccccc1N1C(=N)S/C(=C\c2ccc(-c3ccccc3C(=O)O)o2)C1=O | 1.84 µM [falling, single point] | 
Cc1ccc(N/N=C(\C#N)C(=N)N2CCCCC2)cc1 | 1.26 µM [rising, full curve, poor fit] | 
CCCCOC(=O)Nc1ccc(S(=O)(=O)Nc2ccc([N+](=O)[O-])cc2)cc1 | 5.17 µM [falling, full curve] | 
COc1ccc(N/C=C/C(=O)C(C)(C)C)cc1 | 3.16 µM [rising, full curve, poor fit] | 
CCCCNC(=S)Nc1cccc(C(C)=O)c1 | 29.1 µM [rising, single point] | 
CC1CCCN(c2nc(N(C)c3ccccc3)nc(N)c2[N+](=O)[O-])C1 (stereo unspecified) | 8.91 µM [rising, partial curve, poor fit] | 
Cc1ccc(C(=O)Oc2ccc3c(c2)ncn3C)cc1 | 10.3 µM [rising, partial curve, poor fit] | 
COC(=O)CNC(=O)Cc1c(F)cccc1Cl | 0.82 µM [rising, full curve, poor fit] | 
O=C(COc1ccccc1-c1ccccc1)N/N=C/c1cccc2ccccc12 |  | 3.55 µM [falling, full curve]
Cc1ccc(C)c(N2CCN(C(=O)COc3cc(=O)n(C)c4ccccc34)CC2)c1 | 3.16 µM [rising, single point] | 
CCCC(=O)Nc1ccc(Cl)c(NC(=S)NC(=O)C(C)C)c1 | 4.47 µM [rising, single point] | 
CC(C)C(=O)Nc1ccc(-c2ccc3nncn3n2)cc1 | 11.2 µM [rising, partial curve] | 
Cc1c(CN2CCC(CO)(CCOc3ccccc3)CC2)[nH]c2c(Cl)cccc12 | 35.5 µM [falling, single point] | 
O=C1Nc2cc(Cl)ccc2Oc2cc(Oc3ccccc3)ccc21 | 8.91 µM [rising, partial curve, poor fit] | 
COc1ccc(NC(=O)/C(Cl)=C(/Cl)S(=O)Cc2ccc(Cl)cc2)cn1 (stereo unspecified) | 6.31 µM [falling, full curve, poor fit] | 7.08 µM [rising, full curve, poor fit]
COc1ccccc1CNC(=O)c1cc(=O)c2ccccc2o1 | 35.5 µM [falling, single point] | 

SMILES | AC50 [1] | AC50 [2]
O=C(CSc1nc2c(c(=O)[nH]1)CCC2)Nc1ccccc1Cl | 6.31 µM [falling, single point] | 
O=[N+]([O-])c1c(NCc2ccccc2)cc(N2CCc3ccccc3C2)c2nonc12 | 0.058 µM [rising, full curve, poor fit] | 
Cc1ccc(NC(=O)CSc2nnc(CNC(=O)c3ccco3)n2C)cc1 | 0.231 µM [rising, full curve, poor fit] | 
O=C(CCC(=O)Nc1ccc(Cl)cc1)N/N=C/c1ccc2c(c1)OCO2 | 20 µM [falling, partial curve, poor fit] | 
Cc1ccc(CCNC(=O)CCc2nc3ccccc3[nH]2)cc1 | 4.11 µM [rising, full curve] | 
Cc1c(C)c2ccc(OCC(=O)NCCN3CCOCC3)c(C)c2oc1=O | 7.08 µM [rising, partial curve, poor fit] | 
Cc1ccc(C(=O)c2sc3nsc(C)c3c2N)cc1 | 0.517 µM [rising, partial curve, poor fit] | 
CCc1ccc(NC(=O)CCNS(=O)(=O)c2cccc3nonc23)cc1 | 25.9 µM [rising, partial curve, poor fit] | 
Cc1nc2sc3c(c2c(=O)o1)CC(C)(C)OC3 | 0.0731 µM [rising, full curve, poor fit] | 
COc1ccc(C(=S)NC2CCCCC2)cc1 | 7.94 µM [rising, partial curve, poor fit] | 
N=C1/C(=C/c2ccc(OCc3ccccc3F)cc2)C(=O)N=C2SC(CC(=O)N3CCOCC3)=NN12 | 35.5 µM [rising, single point] | 
CCOC(=S)SCC(=O)Nc1nccs1 | 7.94 µM [falling, partial curve] | 
O=C(CN1c2cccc3cccc(c23)S1(=O)=O)Nc1ccccc1 | 1.26 µM [rising, full curve, poor fit] | 
Cc1c[nH]c2cccc(OCC(O)CNC(C)(C)C)c12 (stereo unspecified) | 29.1 µM [rising, single point] | 
CCOc1cc(CNn2cnnc2)cc(Cl)c1OCC(=O)NC(C)(C)C | 6.31 µM [falling, single point] | 
CC(Cc1cccs1)NC(=O)Nc1ccc(Cl)cc1 (stereo unspecified) | 1.03 µM [rising, partial curve, poor fit] | 
O=C(N/N=C/c1ccc(Cl)c([N+](=O)[O-])c1)c1cc(-c2ccc3c4c(cccc24)CC3)n[nH]1 | 31.6 µM [rising, single point] | 
CC(C)NC(C(=O)Nc1cc(Cl)cc(Cl)c1)c1ccccc1 (stereo unspecified) | 20.6 µM [falling, single point] | 
CCCn1c(N)c(C(=O)CSc2ncc(C(F)(F)F)cc2Cl)c(=O)[nH]c1=O | 35.5 µM [rising, single point] | 
C=C(C)C1CC=C(C)/C(=N\NC(=O)CCc2ccccc2)C1 (stereo unspecified) | 3.66 µM [rising, partial curve, poor fit] | 
COC(=O)c1cc(OC)c(OC)cc1NC(=S)Nc1cccc(C(C)=O)c1 | 6.51 µM [rising, full curve] | 
CC(=O)c1ccc(S(=O)(=O)N2CCCCC2C(=O)O)cc1 (stereo unspecified) | 12.6 µM [falling, partial curve, poor fit] | 

Among those listed so far, these have four or more nitrogen atoms.
SMILES | AC50 [1] | AC50 [2]
Cc1cccc(-c2cc3nc(-c4ccccc4)cc(N4CCC5(CC4)OCCO5)n3n2)c1 |  | 25.9 µM [rising, partial curve, poor fit]
Cc1ccc(N/N=C(\C#N)C(=N)N2CCCCC2)cc1 | 1.26 µM [rising, full curve, poor fit] | 
CC1CCCN(c2nc(N(C)c3ccccc3)nc(N)c2[N+](=O)[O-])C1 (stereo unspecified) | 8.91 µM [rising, partial curve, poor fit] | 
CC(C)C(=O)Nc1ccc(-c2ccc3nncn3n2)cc1 | 11.2 µM [rising, partial curve] | 
O=[N+]([O-])c1c(NCc2ccccc2)cc(N2CCc3ccccc3C2)c2nonc12 | 0.058 µM [rising, full curve, poor fit] | 
Cc1ccc(NC(=O)CSc2nnc(CNC(=O)c3ccco3)n2C)cc1 | 0.231 µM [rising, full curve, poor fit] | 
CCc1ccc(NC(=O)CCNS(=O)(=O)c2cccc3nonc23)cc1 | 25.9 µM [rising, partial curve, poor fit] | 
N=C1/C(=C/c2ccc(OCc3ccccc3F)cc2)C(=O)N=C2SC(CC(=O)N3CCOCC3)=NN12 | 35.5 µM [rising, single point] | 
CCOc1cc(CNn2cnnc2)cc(Cl)c1OCC(=O)NC(C)(C)C | 6.31 µM [falling, single point] | 
O=C(N/N=C/c1ccc(Cl)c([N+](=O)[O-])c1)c1cc(-c2ccc3c4c(cccc24)CC3)n[nH]1 | 31.6 µM [rising, single point] | 
CCCn1c(N)c(C(=O)CSc2ncc(C(F)(F)F)cc2Cl)c(=O)[nH]c1=O | 35.5 µM [rising, single point] | 

Reprinted from the results shown (two entries):
SMILES | AC50 [1] | AC50 [2]
O=[N+]([O-])c1c(NCc2ccccc2)cc(N2CCc3ccccc3C2)c2nonc12 | 0.058 µM [rising, full curve, poor fit] | 
Cc1ccc(NC(=O)CSc2nnc(CNC(=O)c3ccco3)n2C)cc1 | 0.231 µM [rising, full curve, poor fit] | 

(cont.)

SMILES | AC50 [1] | AC50 [2]
Cc1ccc(N=Nc2c(O)n(CN3CCOCC3)c3ccccc23)cc1 | 15.8 µM [falling, single point] | 
COc1ccc(C2NC(=O)NC(C)=C2C(=O)OCC2CCCCC2)cc1OC (stereo unspecified) | 20 µM [falling, single point] | 
O=C(Nc1cnc2sc3c(n2c1=O)CCCC3)c1ccc(F)cc1 | 10 µM [rising, partial curve, poor fit] | 
COc1ccc(-c2c(=O)n(OC)c3ccccc3[n+]2[O-])cc1OC | 3.98 µM [rising, partial curve, poor fit] | 
Cc1cccc(C)c1NC(=O)C1NC(=O)CC1c1ccccc1 (stereo unspecified) | 4.11 µM [rising, full curve, poor fit] | 
COc1ccc(-n2nc(C(=O)NCC(=O)Nc3ccc(F)cc3)c3ccccc3c2=O)cc1 | 11.2 µM [falling, partial curve] | 
C#Cc1ccc(CN2CCN(Cc3ccsc3)C(CCO)C2)cc1 (stereo unspecified) | 1.41 µM [rising, full curve, poor fit] | 
COc1ccc(Oc2ncccc2[N+](=O)[O-])cc1 | 35.5 µM [rising, single point] | 
C=CC[C@@H](CC(=O)N[C@@H](CO)Cc1ccccc1)C(=O)N[C@@H](COC(=O)[C@H](CC=C)CC(=O)OC(C)(C)C)Cc1c[nH]c2ccccc12 | 29.1 µM [falling, single point] | 
CCOC(=O)C1=NN(C(=O)c2ccccc2)C(O)(c2ccc(C)cc2)C1 (stereo unspecified) | 9.2 µM [falling, single point] | 
O=C(/C=C/NNC(=O)c1ccc(Cl)cc1)c1ccccc1 | 7.08 µM [falling, partial curve] | 
Cc1ccc(N2CN=c3s/c(=C\c4cccnc4)c(=O)n3C2)cc1 | 17.8 µM [falling, single point] | 
CCC(=O)Nc1ccc(C(=O)Nc2cccc(C)n2)cc1 | 14.1 µM [falling, single point] | 
O=C(Nc1ccccc1N1CCOCC1)c1ccccc1NS(=O)(=O)c1ccc(F)cc1 | 7.31 µM [rising, partial curve] | 
Cc1ccc(S(=O)(=O)N[C@@H](Cc2ccccc2)C(=O)CCl)cc1 | 2.24 µM [falling, full curve] | 
O=C1c2ccccc2NC(c2ccc(-c3cccc(Cl)c3)o2)N1O (stereo unspecified) | 29.1 µM [falling, single point] | 
CC(C)c1nc(SCC(=O)Nc2nccs2)c2ccccc2n1 | 1 µM [falling, full curve] | 
N#C/C=C(/N)N1CCN(c2ccc(Cl)c(Cl)c2)CC1 | 7.31 µM [rising, single point] | 
Cc1nc(N)sc1C(=O)N/N=C/c1ccco1 | 8.91 µM [falling, partial curve] | 14.1 µM [rising, partial curve, poor fit]
COc1ccccc1N=C1SC(C(=O)Nc2cccc(Cl)c2Cl)C(N)=C1C(N)=O (stereo unspecified) | 35.5 µM [falling, single point] | 
